Results reported in PMC13140723.
Construct, isoform or probe ends are uncertain for at least one entry. A negative result means that nothing was seen under these conditions.

Test system: CiWRKY27 (Citrus ichangensis (Ichang papeda))
Experiment: EMSA
Conditions: Chemiluminescent EMSA kit (Beyotime), manufacturer's procedure, pH and temperature not stated, recombinant protein, protein details: His (pHMGWA vector), label: biotin
[1] = unlabeled probe competes dose-dependently

Row | Sequence | binding result | binding result [1]
1 | GATCGGTAGCTACTCTTCTAAAAAATCTCCACTATCCCTC (double strand) [mutant-GSTF6-probe] | no binding | 
2 | GATCGGTAGCTACTCTTCTTTGACTTCTCCACTATCCCTC (double strand) [GSTF6-probe] |  | binds
3 | GCTCAATTTTTGCTTGTCAAGTTTACCGGAGACTTCATC (double strand) [RAP2.7-P4-probe] | binds | 
4 | TCTCGCCTTTTATCTAAAAAATTTTTTTTCTTTTTTAATG (double strand) [mutant-CiCAD7-probe] | no binding | 
5 | TCTCGCCTTTTATCTTTGACTTTTTTTTTCTTTTTTAATG (double strand) [CiCAD7-probe] |  | binds
